In publication PMC10163288:
The other results are listed elsewhere or left out.

B1: il10ra_site1_sap_22_mot_05ca327611f5605f0dd8494b449afcbf_0001_1_000000248_0001_35_51_H_._HHH_b2_01354_0001_0000400025_0000002_0_0001 (protein)
chain: SSSSDAEEYVKAALRFAKALAENGDPEAARRLLRLIIEALRNLGDEEAVELAEELLEKIEKSSSS
B2: il10ra_site1_sap_16_mot_HHH_b1_00999_000000080_0001_41_55_H_._HHH_b2_05851_af2_0001_0000100003_0000002_0_0001_af2pred_0001 (protein)
chain: SSSSSTAEELVRLAIEVAELLREQGDPELAEEALRIAERIARNANDPELRELVEELERLLSSSSS
B3: il10ra_site1_normal_mot_HHH_b1_02997_000000220_0001_39_52_H_._HHH_b2_05487_af2_0001_0000400018_0000001_0 (protein)
chain: SSSSSNEYEILRRAAELYAEGNLEEAQELLEELERELEEKGNFNHLFNVRYLLEQIRRLASSSSS
B4: il10ra_site1_normal_mot_HHH_b1_01233_000000085_0001_1_18_H_._HHH_b1_04853_af2_0001_0000300016_0000001_0 (protein)
chain: SSSSSEEYEKYKKILQEIVELEHEGDREEAEELAEQLLEELRELGNELAVHQVEFLLRLVRSSSS
B5: il10ra_site1_sap_23_mot_HHH_b1_03333_000000091_0001_1_17_H_._HHH_b1_08488_0001_0000300015_0000001_1_0001_af2pred_0001 (protein)
chain: SSSSSREEEALELSLRFLKFLLEEGDEEAAKRLARALLQLAKLANDEEVQREVEEIEKELSSSSS
B6: il10ra_site1_normal_mot_HHH_b2_04275_000000272_0001_20_36_H_._HHH_b2_04520_0001_0000200028_0000002_0_af2pred_0001 (protein)
chain: SSSSDEEEELIRLLRRIIELHTRGDDEEARELLEEARELAERLGNLVVEAILEFLEKLLESSSSS
B7: il10ra_site1_sap_22_mot_HHH_b1_01975_000000257_0001_1_17_H_._HHH_b2_06526_0001_0000100004_0000001_0_0001 (protein)
chain: SSSSDEEEERVLELSKEAFRLALRGNPEEAREVLEEALELAQEIGNERMVHVIEDLLKALSSSSS
B8: il10ra_site1_sap_21_mot_5d0551e3c4357af680d60aaa850e4cea_0001_1_af2_000000133_0001_18_33_H_._HHH_b2_07683_0001_0000300010_0000002_0_0001 (protein)
chain: SSSSNEEAEEYAENTKKFVKWLLEAGDPEAARRLLEAAIHAARNLGDEEVVEELEELLKEISSSS
B9: il10ra_site1_normal_mot_HHH_b2_03801_000000188_0001_20_36_H_._HHH_b1_01557_0001_0000600034_0000001_0 (protein)
chain: SSSSSDREVAERSARRLLEAAKQIDDDEYVRLTLRFAKALAEDVNDEELKKEIEEVIEELSSSSS
B10: il10ra_site1_sap_18_mot_HHH_b1_04514_000000156_0001_1_18_H_._HHH_b1_00771_0001_0000300037_0000001_0_0001_af2pred_dldesign_0_af2pred (protein)
chain: SSSSSSSLAERHFAAAEQFLAQGELELAKRALEYALFLAEAEGDEELVARIRARLAELSSSSSSS
B11: il10ra_site1_normal_mot_HHH_b2_07569_000000265_0001_38_56_H_._HHH_b1_06669_0001_0000100004_0000001_0 (protein)
chain: SSSSELEEEIRELLEELKRLVEEGDVEEASELALEIVQLIFELGDEELVKEVWELVKLAFERSSS
B12: il10ra_site1_normal_mot_HHH_b2_02116_af2_000000165_0001_41_55_H_._HHH_b2_02806_af2_0001_0000300031_0000001_0 (protein)
chain: SSSSSSSEERSVRLLILAARRVSDPHLARAALRLAEEIARHSGNEELLEEAERLLEELRSSSSSS
B13: il10ra_site1_sap_16_mot_HHH_b2_03450_000000073_0001_38_52_H_._HHH_b1_01434_af2_0001_0000400017_0000001_0_0001_af2pred_0001 (protein)
chain: SSSSSSEVEEEVERLLEEAERIKDPHERAYALTRAFALANQNNDPELEELVKKVAIELTSSSSSS
B14: il10ra_site1_sap_18_mot_HHH_b2_01447_af2_000000258_0001_1_20_H_._HHH_b1_03356_0001_0000100001_0000001_0_0001_af2pred_0001 (protein)
chain: SSSSSSEEVEKTFEEVREKAEERGDESARFLAEVLLKAYRIAGDPRAQELLELLLKELNSSSSSS
B15: il10ra_site1_sap_14_mot_HHH_b1_05370_000000138_0001_1_16_H_._HHH_b2_06744_af2_0001_0000500017_0000002_0_0001 (protein)
chain: SSSTVEYLARQALRAAELAAEAGDKEAVEHILEILENLERHRGSEEVREAIRIVEELLEELSSSS
B16: il10ra_site1_sap_19_mot_HHH_b2_08004_000000101_0001_1_17_H_._HHH_b1_05193_0001_0000300016_0000002_0_0001 (protein)
chain: SSSSDEAEKVKEVLEEALKLQREGDKEKARELLEELLKELEEKNNLVLLFSVEHLLRVIENSSSS
B17: il10ra_site1_sap_26_mot_HHH_b2_02386_000000054_0001_1_20_H_._7397bc064fdf6bae2cd3d62d454bf56a_0001_1_0001_0000200008_0000001_0_0001_af2pred_0001 (protein)
chain: SSSSSEEEVVRLTLRFAEWLIEAGDPEAARRFLEAAERLVRELGDEELERKIEELLEELKSSSSS
B18: il10ra_site1_normal_mot_HHH_b1_05357_000000034_0001_23_39_H_._HHH_b1_02372_af2_0001_0000500029_0000001_0_af2pred_0001 (protein)
chain: SSSSDVRHRAAYVALEVYALAYKRNDPEVREEVLKLLREILEKGDPRLLEELEELLEELRSSSSS

molecular target: il10ra, Q13651; assay: yeast display titration

Binder	apparent Kd
B1	inactive: no binding seen
B2	inactive: no binding seen
B3	inactive: no binding seen
B4	inactive: no binding seen
B5	inactive: no binding seen
B6	inactive: no binding seen
B7	inactive: no binding seen
B8	inactive: no binding seen
B9	inactive: no binding seen
B10	inactive: no binding seen
B11	inactive: no binding seen
B12	inactive: no binding seen
B13	inactive: no binding seen
B14	inactive: no binding seen
B15	inactive: no binding seen
B16	inactive: no binding seen
B17	inactive: no binding seen
B18	inactive: no binding seen

Fetched one by one from the list above (two):
Binder	apparent Kd
B6	inactive: no binding seen
B1	inactive: no binding seen
